From patent US20220016063A1, “COMPOSITIONS THAT ENHANCE IRON ABSORPTION AND METHODS OF USE THEREOF” (UNIVERSITY OF FLORDIA RESEARCH FOUNDATION, INCORPORATED, priority 2018, published 2022)
Some results were stated once for a whole list of compounds, not compound by compound.

System: DMT1
Assay: Ligated duodenal loop studies, DMT1 Western blot of BBMV
Parameters: species or system Swiss-Webster mice
Conditions: single AA formulation pH 6.5 in duodenal loop, 45 min 37 °C; relative to control (expression set to 1)
Experimental: Blind loop studies were conducted on 8-10-week-old male Swiss-Webster mice, as they are a commonly used outbred strain. Males were selected for initial screening purposes, but experiments will be repeated in female mice. Mice were sacrificed and duodenal segments (approximately […]) were isolated and flushed with Ringer's buffer. […] After incubation, the luminal liquid was released. […] A standard protocol for isolating BBM protein was performed for Western blot analysis (described below).
Isolation of Brush-Border Membrane Vesicles (BBMV): A light scrape of the duodenal mucosal was placed in 9.9 mL ice-cold lysis buffer with 0.1 mL Halt Protease Inhibitor Cocktail, EDTA-free 100×. Samples were homogenized on ice using an IKA T25 Ultra Turrax device for 2 min. Following homogenization, 500 μL 1 M MgCl2 was added and the sample was rotated at 4° C. for 10 minutes. Samples were then centrifuged at 10,000 rpm for 25 min using a JA-12 rotor in a Beckman-Coulter ultracentrifuge. The supernatant was transferred to new round-bottom tubes and centrifuged again at 19,000 rpm for 40 minutes using a JA-17 rotor. […]
Western Blot: Proteins in gels were transferred to PVDF membranes at 60 V for two hours. […] Blots were subsequently imaged and protein band signals were quantified with a Licor Odyssey CLx immunofluorescent instrument. […]

Compound	relative DMT1 protein expression on the BBM
N[C@@H](CC(=O)O)C(=O)O [aspartic acid]	≥ 1.4
NC(=O)CC[C@H](N)C(=O)O [glutamine]	≥ 1.4
